Publication PMC11652107

Molecular target: HA-HMGA1 (HMGA1 overexpressed in cells) (human (cloned from TE13 cells)) (UniProt P17096)
Assay: affinity purification with mass spectrometry; whole-cell lysates of HMGA1-overexpressing KYSE30 cells, IP with anti-HMGA1 antibody or control IgG, protein A/G beads, SDS-PAGE, Coomassie staining, LC-MS/MS

## poly(ADP‐ribose) polymerase 1 (PARP1), endogenous (from UniProt P09874 1-1014) (enzyme)
  binding: binds

Results are given in words; binding and its absence hold for the method and conditions named. In cells and extracts the contact can be indirect. These calls come from enrichment with a bait or labelling near it, and not all partners need be listed.
